# Source: PubChem BioAssay AID1487 (National Center for Advancing Translational Sciences (NCATS), 2009)
# The other results are listed elsewhere or left out. The main result of the screen is listed elsewhere. These columns were measured beside it and carry no call. The list favours compounds with an active or inconclusive main result. Potencies come from curve fits of mixed quality, noted in brackets.
# Experiment: qHTS Assay for Modulators of Lamin A Splicing
# Conditions: HeLa LMNA splicing GFP/RFP minigene ratio, 48 h
# Outline: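 S3 HeLa stable clones carrying a lamin A-EGFP splicing minigene plus DsRed2 were seeded at 600 cells/well in Opti-MEM with 2% FBS, pin-dosed and incubated 48 h at 37°C. Acumen cytometry (488 nm) gave the GFP/RFP total-intensity ratio.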
# [1] = measured here: GFP splicing reporter channel
# [2] = measured here: RFP viability control channel
Structure (SMILES),AC50 [1],AC50 [2]
Cc1ccc(-n2c(=S)[nH]c3sc4c(c3c2=O)CCc2ccccc2-4)cc1,"3.55 µM [falling, full curve, poor fit]",
O=[N+]([O-])c1ccccc1CN1CCN(Cc2c[nH]c3ccccc23)CC1,"17.8 µM [falling, partial curve]",
CC1(C)S[C@@H]2[C@H](NC(=O)C(N)c3ccccc3)C(=O)N2[C@H]1C(=O)O (stereo partly drawn),"1.12 µM [falling, partial curve, poor fit]","1 µM [falling, single point]"
Cc1nc2cc(NC(=O)Nc3cccc4ccccc34)ccc2n1C,"0.0141 µM [rising, full curve, poor fit]",
COc1cc(NC(=O)CCc2c(C)nn(-c3ccc(N4CCOCC4)nn3)c2C)cc(OC)c1OC,,"4.47 µM [falling, full curve, poor fit]"
COc1ccc(NC(=S)N(CCc2c(C)[nH]c3ccccc23)Cc2ccco2)cc1,,"12.6 µM [rising, partial curve]"
Cc1cc(/C=C(\C#N)C(=O)Nc2ccccc2)c(C)n1-c1cccnc1,,"14.1 µM [rising, partial curve]"
CCC(C)NC(=O)CSc1nc2cc3c(cc2c(=O)n1CCCC(=O)NCCc1ccc(OC)c(OC)c1)OCO3 (stereo not drawn),,"0.447 µM [falling, single point]"
Cc1ccccc1CN(CC(=O)Nc1cccc([N+](=O)[O-])c1)S(=O)(=O)c1ccc(Cl)cc1,,"35.5 µM [rising, single point]"
COc1ccc(F)cc1C(=O)C1CCCN(Cc2cccn2-c2cccnc2)C1 (stereo not drawn),,"35.5 µM [falling, single point]"
CC(=O)OCC1=C(C(=O)O)N2C(=O)[C@@H](NC(=O)CSc3ccncc3)[C@H]2SC1,"0.0631 µM [rising, full curve, poor fit]","5.62 µM [falling, partial curve, poor fit]"
Cc1cccc(C(=O)CC(=O)c2cc(Cl)ccc2O)c1,,"10 µM [rising, partial curve]"
Cc1ccc(-n2c(SCC(=O)Nc3ncc(Cl)cc3Cl)nc3ccccc32)cc1,,"0.891 µM [rising, full curve]"
Clc1ccc(OCCN2CCCCC2)cc1Cl,"0.1 µM [rising, full curve, poor fit]",
O=C(Nc1cccs1)Nc1c(F)c(F)cc(F)c1F,,"20 µM [rising, single point]"
CCc1ccc(CNC(=O)c2c3c(nc4ccccc24)C(=O)N(C2CCCCC2)C3)cc1,"25.1 µM [falling, partial curve]",
O=C(Oc1ccc2c(c1)OCO2)C12CC3CC(CC(C3)C1)C2,,"31.6 µM [rising, single point]"
Cc1nc(NCC2CCCO2)c2nnn(Cc3ccccc3Cl)c2n1 (stereo not drawn),"35.5 µM [rising, single point]","35.5 µM [rising, single point]"
CN1C(=O)/C(=C/c2cn(CC(=O)NCc3ccco3)c3ccccc23)NC1=S,"35.5 µM [falling, single point]","35.5 µM [falling, single point]"
Cc1cc(N2CCN(C)CC2)nc2ccc(NC(=S)N3CCOCC3)cc12,"12.6 µM [falling, partial curve, poor fit]","7.94 µM [falling, partial curve]"
C=CCOC(=O)c1[nH]c2c(c1C)C(=O)CC(c1cc(OC)c(OC)c(OC)c1)C2 (stereo not drawn),,"3.55 µM [rising, full curve]"
Cc1ccc(Cn2c(CN3CCC(C(=O)NCc4ccccc4C)CC3)cc3ccccc32)cc1,"2.51 µM [falling, full curve, poor fit]","0.0708 µM [falling, full curve]"
CC1=Nc2ccc(Br)cc2C(c2ccccc2)N1CC(=O)NN (stereo not drawn),,"2.51 µM [falling, partial curve, poor fit]"
COC(=O)c1ccc(NC(=O)CCS(=O)(=O)c2ccc(Br)s2)cc1,"12.6 µM [rising, partial curve]","8.91 µM [rising, partial curve, poor fit]"
Cc1nc(N2CCCC2)ncc1C(=O)NCc1cccc(Cl)c1,"8.91 µM [rising, partial curve]",
O=C(Nc1ccccc1)/C(=C/c1ccccc1)NC(=O)c1ccco1,"35.5 µM [rising, partial curve, poor fit]","12.6 µM [rising, partial curve]"
COc1ccccc1N1CCN(C(=O)Cn2c(=O)n3nc(-c4ccc(C)cc4)nc3c3ccccc32)CC1,"0.0794 µM [rising, partial curve, poor fit]","6.31 µM [rising, single point]"

# Part of the list above in another layout:
Structure (SMILES)	AC50 [1]	AC50 [2]
COc1ccc(F)cc1C(=O)C1CCCN(Cc2cccn2-c2cccnc2)C1 (stereo not drawn)		35.5 µM [falling, single point]
O=C(Oc1ccc2c(c1)OCO2)C12CC3CC(CC(C3)C1)C2		31.6 µM [rising, single point]
Cc1cc(N2CCN(C)CC2)nc2ccc(NC(=S)N3CCOCC3)cc12	12.6 µM [falling, partial curve, poor fit]	7.94 µM [falling, partial curve]
COc1ccccc1N1CCN(C(=O)Cn2c(=O)n3nc(-c4ccc(C)cc4)nc3c3ccccc32)CC1	0.0794 µM [rising, partial curve, poor fit]	6.31 µM [rising, single point]

# The list continues:

Structure (SMILES),AC50 [1],AC50 [2]
COc1cc(/C=C/C(=O)OCC(=O)NCc2cccs2)ccc1OCC#N,,"0.00316 µM [falling, full curve, poor fit]"
CCCn1c(=O)c2ccccc2n2c(SCCOc3ccc(OC)cc3)nnc12,,"20 µM [rising, single point]"
CCc1ccc(NC(=O)CSc2nc3ccccc3nc2Cc2ccc(C)cc2)cc1,,"31.6 µM [falling, single point]"
CCc1ccc2c(c1)C(c1ccc([N+](=O)[O-])cc1)=NNC(c1ccc(Br)cc1)=N2,"0.0891 µM [falling, single point]","0.0178 µM [falling, single point]"
CCOC(=O)Cn1cnc2c(nnn2-c2ccc(C)cc2)c1=O,,"1.58 µM [falling, partial curve, poor fit]"
COc1ccc(-c2nnc(N(C)C(=O)c3cccnc3)s2)cc1,"4.47 µM [rising, full curve, poor fit]",
CCCCCCCCCCCCCCC(C(=O)OC)C(O)(CC(=O)OC)C(=O)OC (stereo not drawn),"28.2 µM [falling, single point]","31.6 µM [falling, single point]"
Cc1ccc2[nH]c3c(=O)n(CC(=O)NCc4ccco4)ncc3c2c1,"35.5 µM [rising, single point]",
C[C@H]1Cc2c(COc3ccccc3)nc3c(c2CO1)CN(S(=O)(=O)c1ccc2c(c1)OCCN2C)CC3,,"0.002 µM [falling, full curve, poor fit]"
CCN(C(=S)Nc1ccc(C(C)=O)cc1)C1CCCCC1,"6.31 µM [falling, partial curve]","5.01 µM [falling, partial curve]"
Cc1ccc(OCCSc2nnc(-c3cccs3)o2)cc1Cl,,"0.00316 µM [falling, full curve, poor fit]"
COC(=O)NC1(C(F)(F)F)C(=O)Nc2c1c(=O)n(C)c(=O)n2C (stereo not drawn),"0.398 µM [falling, full curve]",
COc1ccc2[nH]cc(CCNc3ccnc(-c4ccc5c(c4)OCO5)n3)c2c1,"7.94 µM [falling, partial curve]","11.2 µM [falling, single point]"
CCCCNS(=O)(=O)c1ccc2nc(SCC(=O)Nc3ccccc3)[nH]c2c1,"17.8 µM [rising, partial curve]","35.5 µM [rising, partial curve]"
Cc1ccc(Nc2ncnc3c2cnn3C)cc1,"20 µM [falling, partial curve, poor fit]",
CCN(CC)S(=O)(=O)c1cc(NC(=O)C(C)N2CCN(Cc3ccc4c(c3)OCO4)CC2)ccc1C (stereo not drawn),"5.62 µM [rising, partial curve]","17.8 µM [rising, partial curve]"
Cc1cc(C)cc(NC(=O)CC2NCCNC2=O)c1 (stereo not drawn),,"0.112 µM [falling, full curve, poor fit]"
CN(C(=O)CSc1nc2ccccc2n1Cc1ccccc1C#N)c1ccccc1,"35.5 µM [rising, single point]","11.2 µM [rising, partial curve, poor fit]"
CCP(=O)(CC)C(C)(C)CP(=O)(c1ccccc1)c1ccccc1,"0.0355 µM [rising, full curve, poor fit]",
COc1ccc(CCNC(=O)c2ccc(N(C)S(=O)(=O)c3ccc(C)cc3)cc2)cc1,"0.02 µM [falling, full curve, poor fit]","0.0112 µM [falling, full curve, poor fit]"
Cn1c(=O)c2c(c3ccccc31)OC(C)(C)CC2,"15.8 µM [rising, partial curve, poor fit]","22.4 µM [rising, single point]"
c1ccc(-c2csc(Nc3ccc4c(c3)OCCO4)n2)cc1,"12.6 µM [rising, single point]","15.8 µM [rising, single point]"
Cc1ccc(S(=O)(=O)c2c(C)nn(C(C)(C)C)c2OC(=O)C(C)(C)C)cc1,"35.5 µM [rising, single point]",
CCOC(=O)c1ccc(-c2ccc(/C=C(\C#N)C(=O)Nc3ccc(C)cc3)o2)cc1,,"35.5 µM [falling, single point]"
Cc1ccc(S(=O)(=O)C(CNS(=O)(=O)c2ccc(F)c(C(F)(F)F)c2)c2ccco2)cc1 (stereo not drawn),"10 µM [falling, partial curve]",
CCC(C(=O)NC1CCCCC1)n1c(SCc2cccc(F)c2)nc2ccncc21 (stereo not drawn),,"1.41 µM [rising, full curve, poor fit]"
O=C(NNc1c2ccccc2nc2ccccc12)c1cccc(O)c1,,"12.6 µM [rising, partial curve, poor fit]"
